Test results published in publication doi:10.1101/2020.06.24.169185.
Like-named read-outs stand apart in the source and are kept apart here. Results are given in words; binding and its absence hold for the method and conditions named. For some assays here: In cells and extracts the contact can be indirect. For some assays here: Where a sequence is shown, tags or fusion partners need not be part of it.

By UniProt entry, the sequences of proteins in these tests, tags left out.
UniProt P48432: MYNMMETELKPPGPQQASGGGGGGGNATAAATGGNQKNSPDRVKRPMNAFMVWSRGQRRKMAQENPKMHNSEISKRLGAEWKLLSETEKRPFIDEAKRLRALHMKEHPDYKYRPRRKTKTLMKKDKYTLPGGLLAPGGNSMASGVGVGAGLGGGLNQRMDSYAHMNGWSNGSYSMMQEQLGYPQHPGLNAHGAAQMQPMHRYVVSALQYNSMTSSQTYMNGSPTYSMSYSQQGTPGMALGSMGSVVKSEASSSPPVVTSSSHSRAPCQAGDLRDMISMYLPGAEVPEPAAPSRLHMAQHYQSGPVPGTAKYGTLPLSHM
UniProt P20263: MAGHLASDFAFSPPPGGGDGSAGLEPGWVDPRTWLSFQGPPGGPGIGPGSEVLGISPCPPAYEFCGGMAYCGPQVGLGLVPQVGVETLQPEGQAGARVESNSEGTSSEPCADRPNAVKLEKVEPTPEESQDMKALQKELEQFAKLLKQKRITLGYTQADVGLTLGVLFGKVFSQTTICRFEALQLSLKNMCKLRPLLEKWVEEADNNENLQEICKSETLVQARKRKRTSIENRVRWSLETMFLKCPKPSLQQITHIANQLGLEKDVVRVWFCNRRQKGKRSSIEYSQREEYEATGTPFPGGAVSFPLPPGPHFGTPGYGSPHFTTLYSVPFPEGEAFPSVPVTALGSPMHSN

Tests used:
(FLAG)3-Sox2 [1] = target: (FLAG)3-Sox2 (UniProt P48432); test: fluorescence correlation spectroscopy
(FLAG)3-Oct4 = (FLAG)3-Oct4 (UniProt P20263); test: fluorescence correlation spectroscopy
mCherry-Nanog [2] = target: mCherry-Nanog (UniProt Q80Z64); test: fluorescence cross-correlation spectroscopy
mCherry-Oct4 = mCherry-Oct4 (UniProt P20263); test: fluorescence cross-correlation spectroscopy
mCherry-Sox2 = mCherry-Sox2 (UniProt P48432); test: fluorescence cross-correlation spectroscopy
(FLAG)3-Nanog = target: T1, (FLAG)3-Nanog (UniProt Q80Z64); test: co-IP
T1 sequence: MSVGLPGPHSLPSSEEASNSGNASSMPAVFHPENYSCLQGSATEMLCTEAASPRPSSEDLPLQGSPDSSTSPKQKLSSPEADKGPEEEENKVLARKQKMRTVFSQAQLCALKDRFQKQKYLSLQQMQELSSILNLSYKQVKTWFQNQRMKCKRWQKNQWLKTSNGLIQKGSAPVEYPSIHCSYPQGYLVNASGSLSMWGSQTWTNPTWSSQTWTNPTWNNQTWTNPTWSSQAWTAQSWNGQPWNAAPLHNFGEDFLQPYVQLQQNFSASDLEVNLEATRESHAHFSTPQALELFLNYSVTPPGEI

(FLAG)3-Sox2 [3] = target: (FLAG)3-Sox2 (UniProt P48432); test: co-IP
mCherry-Nanog [4] = target: mCherry-Nanog (UniProt Q80Z64); test: fluorescence cross-correlation spectroscopy; remark: listed apart in the source

binding ((FLAG)3-Sox2 [1]): no binding
binding ((FLAG)3-Oct4): no binding
binding (mCherry-Nanog [2]): no binding
binding (mCherry-Oct4): no binding
binding (mCherry-Sox2): no binding
binding ((FLAG)3-Nanog): no binding
binding ((FLAG)3-Sox2 [3]): no binding
binding (mCherry-Nanog [4]): no binding
Substance: GFP-Nanog-W10A (from UniProt Q80Z64)
